Assay results

Data taken from PubChem BioAssay AID1508627, deposited by NCATS (2021).

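Light output of secreted GLuc without a tag in a neuroblastoma line, used as a counterscreen, with an ER calcium-depleting agent present for 4 h. The value is the fitted concentration giving half-maximal inhibition, and a smaller value means a more potent compound. Calls follow the NCATS curve classes: well-fitted full or partial curves score 40-100 and are active, weak, poor or single-point curves score 1-39 and are inconclusive, and class 4 is inactive.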

Values are in µM. All entries here are filed as inconclusive. Only part of the assay is shown, chiefly results filed as inconclusive. A potency from a partial, single-point or poor curve is only a rough figure. Some entries filed as inconclusive have a full curve. Activity scores are not listed here.

| structure | Potency (µM) | remark |
|---|---|---|
| `CN(C)C/C=C(\c1ccc(Br)cc1)c1cccnc1` | 2.818 | inhibitor, full curve |
| `Cc1cc(-c2ccc(N=Nc3ccc4c(S(=O)(=O)O)cc(S(=O)(=O)O)c(N)c4c3O)c(C)c2)ccc1N=Nc1ccc2c(S(=O)(=O)O)cc(S(=O)(=O)O)c(N)c2c1O` | 44.67 | inhibitor, partial curve, poor fit |
| `Cc1ccccc1N=Nc1ccc(N=Nc2c(O)ccc3ccccc23)c(C)c1` | 5.012 | inhibitor, partial curve, poor fit |
| `CCCCCCCC/C=C\CCCCCCCC(=O)NCCc1ccc(O)c(O)c1` | 35.48 | inhibitor, partial curve, poor fit |
| `Oc1cc(O)cc(/C=C/c2ccc(O)c(O)c2)c1` | 0.3162 | inhibitor, full curve, poor fit |
| `NC1CCc2cc(O)c(O)cc2C1` (centres unmarked) | 50.12 | inhibitor, single point |
| `CNc1ccc2oc(C[C@H]3O[C@]4(CC[C@H]3C)O[C@H]([C@H](C)C(=O)c3ccc[nH]3)[C@H](C)C[C@H]4C)nc2c1C(=O)O` | 70.79 | inhibitor, single point |
| `O=S(=O)(c1cccc2cnccc12)N1CCNCC1` | 50.12 | inhibitor, partial curve, poor fit |
| `CC(C)=CCc1c2c(c3occ(-c4ccc(O)c(O)c4)c(=O)c3c1O)C=CC(C)(C)O2` | 50.12 | inhibitor, single point |
| `C=CCN1CCc2cccc3c2C1Cc1ccc(O)c(O)c1-3` (centres unmarked) | 15.85 | inhibitor, full curve, poor fit |
| `C[C@@H]1CN(CCCn2c3ccccc3c3ccccc32)C[C@H](C)N1` | 50.12 | inhibitor, single point |
| `FC(F)(F)c1ccccc1-c1nc(N2CCNCC2)c2ccccc2n1` | 1 | inhibitor, full curve |
| `CN(C(=O)Cc1ccc(Cl)c(Cl)c1)[C@H](CN1CCCC1)c1ccccc1` | 50.12 | inhibitor, single point |
| `CN(C)Cc1ccccc1-c1ccc2ncnc(NCc3cccs3)c2c1` | 8.912 | inhibitor, full curve, poor fit |
| `O=c1c(CCc2ccccc2)nc2cnc(N3CCNCC3)nc2n1Cc1ccc(F)cc1` | 70.79 | inhibitor, single point |
| `O=C1c2ccccc2C(=O)c2c(NCCc3ccc(O)cc3)ccc(NCCc3ccc(O)cc3)c21` | 11.22 | inhibitor, partial curve |
| `Oc1ccc2c3c1O[C@H]1c4[nH]c5ccccc5c4C[C@@]4(O)C(C2)N(CC2CC2)CCC314` (some centres unmarked) | 70.79 | inhibitor, single point |
| `Cc1ccccc1-c1nc(NC2CCNCC2)c2ccccc2n1` | 0.631 | inhibitor, full curve |
| `CN1CCN(c2ncc3nc(-c4cccs4)c(=O)n(C[C@H]4CCCO4)c3n2)CC1` | 0.2818 | inhibitor, full curve, poor fit |
| `CN1CCCC(CC2c3ccccc3Sc3ccccc32)C1` (centres unmarked) | 22.39 | inhibitor, partial curve, poor fit |
| `COc1ccc(/C=C\C(=O)Nc2ccccc2C(=O)O)cc1OC` | 25.12 | inhibitor, full curve |
| `O=C(CCCN1C(=O)c2cccc3cccc(c23)C1=O)N1CCN(Cc2ccc3c(c2)OCO3)CC1` | 34.36 | inhibitor, single point |
| `COC(=O)[C@@H](N)Cc1ccc(O)c(O)c1` | 50.12 | inhibitor, single point |
| `N#CCCn1c(=O)c(CCc2ccccc2)nc2cnc(OCc3ccccc3)nc21` | 0.2512 | inhibitor, full curve, poor fit |
| `CCCN1CCc2cc(O)cc3c2[C@H]1Cc1ccc(O)c(O)c1-3` | 3.162 | inhibitor, partial curve, poor fit |
| `O=C(/C=C/c1ccc(O)c(O)c1)OCCc1ccccc1` | 12.59 | inhibitor, partial curve, poor fit |